This note sets out measurements from paper PMC5709735, “Real‐time detection of condensin‐driven DNA compaction reveals a multistep binding mechanism” (The EMBO Journal, 2017).

One experiment has as its target T1, Brn1 (S. cerevisiae) (UniProt P38170).
T1 sequence: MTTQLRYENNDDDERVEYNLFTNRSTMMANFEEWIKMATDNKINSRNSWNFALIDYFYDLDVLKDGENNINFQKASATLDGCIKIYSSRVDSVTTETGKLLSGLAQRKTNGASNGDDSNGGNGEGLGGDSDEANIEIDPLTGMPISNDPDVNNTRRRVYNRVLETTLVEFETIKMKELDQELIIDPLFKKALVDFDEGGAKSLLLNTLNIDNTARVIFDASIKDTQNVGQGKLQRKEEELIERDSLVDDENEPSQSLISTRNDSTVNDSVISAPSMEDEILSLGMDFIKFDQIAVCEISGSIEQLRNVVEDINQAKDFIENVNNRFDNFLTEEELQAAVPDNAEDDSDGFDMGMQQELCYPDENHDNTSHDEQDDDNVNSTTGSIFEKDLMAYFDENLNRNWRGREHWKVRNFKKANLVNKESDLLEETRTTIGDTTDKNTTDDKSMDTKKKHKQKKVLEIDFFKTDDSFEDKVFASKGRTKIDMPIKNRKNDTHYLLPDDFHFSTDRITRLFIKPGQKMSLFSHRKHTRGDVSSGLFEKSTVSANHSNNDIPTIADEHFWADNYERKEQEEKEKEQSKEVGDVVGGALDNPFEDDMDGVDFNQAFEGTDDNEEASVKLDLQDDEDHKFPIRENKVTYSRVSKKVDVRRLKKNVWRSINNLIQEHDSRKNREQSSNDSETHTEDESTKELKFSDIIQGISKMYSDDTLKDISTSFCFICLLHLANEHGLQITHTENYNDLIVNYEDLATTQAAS
The experiment can be described thus: tandem affinity chromatography + SEC; subunits co-overexpressed in budding yeast; complexes purified from interphase cell extracts by the His12 tag on Brn1 and the triple StrepII tag on Smc4, followed by a gel filtration step.

Experiment [1] has as its target T2, Brn1 K409D, R411D, K414D, K451D, K452D, K456D, K457D (S. cerevisiae) (UniProt P38170).
T2 sequence: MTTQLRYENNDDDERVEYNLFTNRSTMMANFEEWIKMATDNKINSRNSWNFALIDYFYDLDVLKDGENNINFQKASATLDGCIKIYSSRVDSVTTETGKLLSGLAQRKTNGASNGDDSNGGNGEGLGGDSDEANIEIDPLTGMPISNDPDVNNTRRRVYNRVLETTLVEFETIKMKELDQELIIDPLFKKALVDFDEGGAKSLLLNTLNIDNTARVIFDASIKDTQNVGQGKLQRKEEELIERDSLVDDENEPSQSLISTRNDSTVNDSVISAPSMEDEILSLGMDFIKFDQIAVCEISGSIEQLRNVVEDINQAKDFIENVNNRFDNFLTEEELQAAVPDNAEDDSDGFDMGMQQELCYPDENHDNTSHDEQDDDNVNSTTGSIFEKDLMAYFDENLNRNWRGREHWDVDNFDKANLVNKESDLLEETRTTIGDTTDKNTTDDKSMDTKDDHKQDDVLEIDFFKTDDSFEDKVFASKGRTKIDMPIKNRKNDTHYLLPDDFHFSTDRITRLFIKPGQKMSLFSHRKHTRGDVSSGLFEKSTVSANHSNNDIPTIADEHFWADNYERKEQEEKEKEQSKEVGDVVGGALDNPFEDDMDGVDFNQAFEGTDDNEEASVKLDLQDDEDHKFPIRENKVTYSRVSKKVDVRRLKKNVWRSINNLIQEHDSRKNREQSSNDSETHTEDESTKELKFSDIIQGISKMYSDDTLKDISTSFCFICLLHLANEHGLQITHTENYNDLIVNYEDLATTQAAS
The description is as above.

No constants are given. Whether binding was seen depends on the method and setting. Some binding calls cover weakened binding; strength is not graded here.

B1: Smc4 (protein, UniProt Q12267 1-1418)
chain: MSDSPLSKRQKRKSAQEPELSLDQGDAEEDSQVENRVNLSENTPEPDLPALEASYSKSYTPRKLVLSSGENRYAFSQPTNSTTTSLHVPNLQPPKTSSRGRDHKSYSQSPPRSPGRSPTRRLELLQLSPVKNSRVELQKIYDRHQSSSKQQSRLFINELVLENFKSYAGKQVVGPFHTSFSAVVGPNGSGKSNVIDSMLFVFGFRANKMRQDRLSDLIHKSEAFPSLQSCSVAVHFQYVIDESSGTSRIDEEKPGLIITRKAFKNNSSKYYINEKESSYTEVTKLLKNEGIDLDHKRFLILQGEVENIAQMKPKAEKESDDGLLEYLEDIIGTANYKPLIEERMGQIENLNEVCLEKENRFEIVDREKNSLESGKETALEFLEKEKQLTLLRSKLFQFKLLQSNSKLASTLEKISSSNKDLEDEKMKFQESLKKVDEIKAQRKEIKDRISSCSSKEKTLVLERRELEGTRVSLEERTKNLVSKMEKAEKTLKSTKHSISEAENMLEELRGQQTEHETEIKDLTQLLEKERSILDDIKLSLKDKTKNISAEIIRHEKELEPWDLQLQEKESQIQLAESELSLLEETQAKLKKNVETLEEKILAKKTHKQELQDLILDLKKKLNSLKDERSQGEKNFTSAHLKLKEMQKVLNAHRQRAMEARSSLSKAQNKSKVLTALSRLQKSGRINGFHGRLGDLGVIDDSFDVAISTACPRLDDVVVDTVECAQHCIDYLRKNKLGYARFILLDRLRQFNLQPISTPENVPRLFDLVKPKNPKFSNAFYSVLRDTLVAQNLKQANNVAYGKKRFRVVTVDGKLIDISGTMSGGGNHVAKGLMKLGTNQSDKVDDYTPEEVDKIERELSERENNFRVASDTVHEMEEELKKLRDHEPDLESQISKAEMEADSLASELTLAEQQVKEAEMAYVKAVSDKAQLNVVMKNLERLRGEYNDLQSETKTKKEKIKGLQDEIMKIGGIKLQMQNSKVESVCQKLDILVAKLKKVKSASKKSGGDVVKFQKLLQNSERDVELSSDELKVIEEQLKHTKLALAENDTNMNETLNLKVELKEQSEQLKEQMEDMEESINEFKSIEIEMKNKLEKLNSLLTYIKSEITQQEKGLNELSIRDVTHTLGMLDDNKMDSVKEDVKNNQELDQEYRSCETQDESEIKDAETSCDNYHPMNIDETSDEVSRGIPRLSEDELRELDVELIESKINELSYYVEETNVDIGVLEEYARRLAEFKRRKLDLNNAVQKRDEVKEQLGILKKKRFDEFMAGFNIISMTLKEMYQMITMGGNAELELVDSLDPFSEGVTFSVMPPKKSWRNITNLSGGEKTLSSLALVFALHKYKPTPLYVMDEIDAALDFRNVSIVANYIKERTKNAQFIVISLRNNMFELAQQLVGVYKRDNRTKSTTIKNIDILNRT
Consider B1, for which the binding entry (with Brn1 (S. cerevisiae); in experiment [1]) was “binds” each time.

B2: Smc4 Q302L (protein, UniProt Q12267 1-1418)
chain: MSDSPLSKRQKRKSAQEPELSLDQGDAEEDSQVENRVNLSENTPEPDLPALEASYSKSYTPRKLVLSSGENRYAFSQPTNSTTTSLHVPNLQPPKTSSRGRDHKSYSQSPPRSPGRSPTRRLELLQLSPVKNSRVELQKIYDRHQSSSKQQSRLFINELVLENFKSYAGKQVVGPFHTSFSAVVGPNGSGKSNVIDSMLFVFGFRANKMRQDRLSDLIHKSEAFPSLQSCSVAVHFQYVIDESSGTSRIDEEKPGLIITRKAFKNNSSKYYINEKESSYTEVTKLLKNEGIDLDHKRFLILLGEVENIAQMKPKAEKESDDGLLEYLEDIIGTANYKPLIEERMGQIENLNEVCLEKENRFEIVDREKNSLESGKETALEFLEKEKQLTLLRSKLFQFKLLQSNSKLASTLEKISSSNKDLEDEKMKFQESLKKVDEIKAQRKEIKDRISSCSSKEKTLVLERRELEGTRVSLEERTKNLVSKMEKAEKTLKSTKHSISEAENMLEELRGQQTEHETEIKDLTQLLEKERSILDDIKLSLKDKTKNISAEIIRHEKELEPWDLQLQEKESQIQLAESELSLLEETQAKLKKNVETLEEKILAKKTHKQELQDLILDLKKKLNSLKDERSQGEKNFTSAHLKLKEMQKVLNAHRQRAMEARSSLSKAQNKSKVLTALSRLQKSGRINGFHGRLGDLGVIDDSFDVAISTACPRLDDVVVDTVECAQHCIDYLRKNKLGYARFILLDRLRQFNLQPISTPENVPRLFDLVKPKNPKFSNAFYSVLRDTLVAQNLKQANNVAYGKKRFRVVTVDGKLIDISGTMSGGGNHVAKGLMKLGTNQSDKVDDYTPEEVDKIERELSERENNFRVASDTVHEMEEELKKLRDHEPDLESQISKAEMEADSLASELTLAEQQVKEAEMAYVKAVSDKAQLNVVMKNLERLRGEYNDLQSETKTKKEKIKGLQDEIMKIGGIKLQMQNSKVESVCQKLDILVAKLKKVKSASKKSGGDVVKFQKLLQNSERDVELSSDELKVIEEQLKHTKLALAENDTNMNETLNLKVELKEQSEQLKEQMEDMEESINEFKSIEIEMKNKLEKLNSLLTYIKSEITQQEKGLNELSIRDVTHTLGMLDDNKMDSVKEDVKNNQELDQEYRSCETQDESEIKDAETSCDNYHPMNIDETSDEVSRGIPRLSEDELRELDVELIESKINELSYYVEETNVDIGVLEEYARRLAEFKRRKLDLNNAVQKRDEVKEQLGILKKKRFDEFMAGFNIISMTLKEMYQMITMGGNAELELVDSLDPFSEGVTFSVMPPKKSWRNITNLSGGEKTLSSLALVFALHKYKPTPLYVMDEIDAALDFRNVSIVANYIKERTKNAQFIVISLRNNMFELAQQLVGVYKRDNRTKSTTIKNIDILNRT
In the case of B2, the binding entry with Brn1 (S. cerevisiae) is given as “binds”.
